Test results: patent publication US9868789B2, “Synergistic combinations of OX40L antibodies for the treatment of GvHD” (Kymab Limited, priority 2015, dated 2018)
Some of these results come from one statement about several compounds together.

System: allogeneic PBMC/T cell MLR
Assay: Allogeneic PBMC/T cell Mixed Lymphocyte Reaction (IFN-γ release)
Type: cell-based, human
Settings: relative to control wells in the absence of antibody; five days; all three valid experiments

B1: 10A07 (human): fully human anti-human OX40L antibody reformatted to IgG4-PE; VH SEQ ID No:2, VL SEQ ID No:16 (antibody, listed as Homo Sapiens, V domains shown)
VH: EVQLVESGGVLVQPGGSLRLSCAASGFTFSSYIMTWVRQAPGKGLEWVSGISGSGGGTYYADSMKGRFTISRDNSKNTLYLQMNSLRVEDTAVYYCAKDRLGPITLVRGGYYYGMDVWGQGTTVTVSS
VL: DIQMTQSPSSLSASVGDRVTITCRASQSISDYLNWYQQKPGKAPKFLIYAASSLQSGVPSRFSGSGSGTDFTLTVSSLQPEDFATYYCQQSYSTPRTFGQGTRVEIK
modifications: IgG4-PE constant region
Question: With B1 as the molecule, how does the “inhibition of factor release (IFN-γ) in PBMC/T cell MLR” value read?
Answer: Its value is > 20%.
